# Laboratory results: PubChem BioAssay AID1259254 (NCATS, 2017)
# Assay: 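Finding genes that stop cells copying their DNA twice in one cycle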 (primary screen)
# Cell system: human HCT116 colorectal cancer cells
# Reagent: single siRNA against human genes
# Timing: 3 days
# Measurement: 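Imaged Hoechst DNA stain sorts each cell into a cycle phase by DNA amount; per plate, G2 fraction set to 0% for non-targeting and 100% for GMNN siRNA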
# Scale: G2 robust z-score and G2 cells, % of GMNN control: higher = more G2 cells, more excess DNA replication; raw share of cells in G2: higher = larger share of cells with G2 DNA content
# Hit rule: 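An siRNA counts as active if its G2 robust z-score lies at least 5 MADs above the screen median; here such calls match roughly 38% of GMNN control or more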
# The whole screen tested about 59,000 reagents; this is an unselected part. Of all reagents, about 1,550 (2.6%) are marked active. 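G2 share is only a proxy for re-replication; each gene was hit by three separate siRNAs, and active genes were retested.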 Raw values vary from plate to plate and are shown uncorrected. A number with no mark means an inactive call. The numbers tell different reagents against one gene apart. Not stated in the record: the amount of reagent.
G2 robust z-score,"G2 cells, % of GMNN control",raw share of cells in G2 (%),gene knocked down,reagent
0.661,7.62,6.56,SLC25A38P1 (GeneID 441915),1
1.48,13.4,8.48,SLC25A38P1 (GeneID 441915),2
-0.00483,2.93,4.12,SLC25A38P1 (GeneID 441915),3
0.989,9.93,7.24,IL17RA (GeneID 23765),1
-0.584,-1.14,5.65,IL17RA (GeneID 23765),2
-0.96,-3.79,2.93,IL17RA (GeneID 23765),3
0.176,4.2,5.37,MRM2 (GeneID 29960),1
-0.416,0.0436,6.18,MRM2 (GeneID 29960),2
-0.997,-4.05,2.84,MRM2 (GeneID 29960),3
-0.0446,2.65,5.54,RPRD1A (GeneID 55197),1
-0.282,0.982,4.55,RPRD1A (GeneID 55197),2
0.531,6.71,5.28,RPRD1A (GeneID 55197),3
0.63,7.4,6.5,TMEM52 (GeneID 339456),1
-0.14,1.98,4.99,TMEM52 (GeneID 339456),2
0.605,7.22,6.47,TMEM52 (GeneID 339456),3
-0.578,-1.1,3.4,KRTDAP (GeneID 388533),1
-0.941,-3.65,1.82,KRTDAP (GeneID 388533),2
-0.243,1.26,5.17,KRTDAP (GeneID 388533),3
5.13 (active),39,20.5,MLH1 (GeneID 4292),1
4.03,31.3,17.9,MLH1 (GeneID 4292),2
0.514,6.59,5.37,MLH1 (GeneID 4292),3
2.57,21,12.2,TBX19 (GeneID 9095),1
-0.868,-3.14,4.16,TBX19 (GeneID 9095),2
-0.336,0.601,4.81,TBX19 (GeneID 9095),3
-1.07,-4.53,3.57,LRRC74BNL (GeneID 113691),1
3.56,28,17,LRRC74BNL (GeneID 113691),2
1.45,13.2,9.45,LRRC74BNL (GeneID 113691),3
0.556,6.88,6.13,CFAP77 (GeneID 389799),1
-0.52,-0.693,3.1,CFAP77 (GeneID 389799),2
-0.344,0.546,4.87,CFAP77 (GeneID 389799),3
5.09 (active),38.8,20.1,SLC26A11 (GeneID 284129),1
-0.619,-1.39,3.78,SLC26A11 (GeneID 284129),2
0.154,4.05,7.65,SLC26A11 (GeneID 284129),3
-0.647,-1.59,3.72,EMSY (GeneID 56946),1
0.354,5.46,7.07,EMSY (GeneID 56946),2
3.79,29.6,12.4,EMSY (GeneID 56946),3
0.0738,3.49,6.94,HCRT (GeneID 3060),1
-0.204,1.53,4.65,HCRT (GeneID 3060),2
-1.04,-4.33,1.82,HCRT (GeneID 3060),3
4.29,33.1,17.1,KIF25 (GeneID 3834),1
1.16,11.1,9.91,KIF25 (GeneID 3834),2
-0.862,-3.1,3.07,KIF25 (GeneID 3834),3
-0.519,-0.682,5.38,PAK2 (GeneID 5062),1
-1.11,-4.81,3.79,PAK2 (GeneID 5062),2
-0.262,1.12,4.42,PAK2 (GeneID 5062),3
-0.3,0.857,3.39,ZNF595 (GeneID 152687),1
-0.747,-2.29,2.37,ZNF595 (GeneID 152687),2
4.89,37.4,16.6,ZNF595 (GeneID 152687),3
4.03,31.3,19,MIA (GeneID 8190),1
-0.379,0.303,4.01,MIA (GeneID 8190),2
-0.488,-0.469,3.18,MIA (GeneID 8190),3
0.0118,3.05,4.24,HOMER1 (GeneID 9456),1
0.368,5.56,7.3,HOMER1 (GeneID 9456),2
-0.211,1.48,5.35,HOMER1 (GeneID 9456),3
-1.23,-5.67,3.81,VN1R1 (GeneID 57191),1
0.164,4.12,5.96,VN1R1 (GeneID 57191),2
-0.992,-4.01,2.04,VN1R1 (GeneID 57191),3
0.737,8.16,8.26,CACNB2 (GeneID 783),1
0.268,4.86,6.42,CACNB2 (GeneID 783),2
-1.05,-4.42,2.65,CACNB2 (GeneID 783),3
-0.491,-0.484,4.05,SUGP1 (GeneID 57794),1
0.467,6.25,8.24,SUGP1 (GeneID 57794),2
-0.704,-1.98,3.65,SUGP1 (GeneID 57794),3
1.24,11.7,9.56,TUBGCP2 (GeneID 10844),1
0.266,4.84,6.13,TUBGCP2 (GeneID 10844),2
0.772,8.4,6.32,TUBGCP2 (GeneID 10844),3
2.87,23.2,11.7,MT1H (GeneID 4496),1
2.59,21.2,14,MT1H (GeneID 4496),2
0.83,8.81,7.7,MT1H (GeneID 4496),3
-0.975,-3.89,2.01,ZBED1P1 (GeneID 645145),1
1.88,16.2,9.8,ZBED1P1 (GeneID 645145),2
-1.27,-5.96,1.13,ZBED1P1 (GeneID 645145),3
-0.439,-0.123,3.41,ZNF354A (GeneID 6940),1
0.151,4.03,6.73,ZNF354A (GeneID 6940),2
1.37,12.6,7.68,ZNF354A (GeneID 6940),3
1.18,11.3,7.94,FGF6 (GeneID 2251),1
-0.82,-2.8,3.99,FGF6 (GeneID 2251),2
-0.253,1.19,4.52,FGF6 (GeneID 2251),3
-0.512,-0.634,4.3,GPBP1L1 (GeneID 60313),1
0.77,8.39,8.37,GPBP1L1 (GeneID 60313),2
0.528,6.68,4.46,GPBP1L1 (GeneID 60313),3
-0.449,-0.195,3.38,RNF4 (GeneID 6047),1
-0.29,0.924,5.28,RNF4 (GeneID 6047),2
3.49,27.5,13.1,RNF4 (GeneID 6047),3
-0.577,-1.09,2.42,CXorf38 (GeneID 159013),1
-0.199,1.56,4.16,CXorf38 (GeneID 159013),2
0.36,5.5,4.8,CXorf38 (GeneID 159013),3

Entries above whose target name starts with Z or z:
G2 robust z-score,"G2 cells, % of GMNN control",raw share of cells in G2 (%),gene knocked down,reagent
-0.3,0.857,3.39,ZNF595 (GeneID 152687),1
-0.747,-2.29,2.37,ZNF595 (GeneID 152687),2
4.89,37.4,16.6,ZNF595 (GeneID 152687),3
-0.975,-3.89,2.01,ZBED1P1 (GeneID 645145),1
1.88,16.2,9.8,ZBED1P1 (GeneID 645145),2
-1.27,-5.96,1.13,ZBED1P1 (GeneID 645145),3
-0.439,-0.123,3.41,ZNF354A (GeneID 6940),1
0.151,4.03,6.73,ZNF354A (GeneID 6940),2
1.37,12.6,7.68,ZNF354A (GeneID 6940),3
